The source of these data is patent US20110008355A1.

Amino acid sequences for entries named in this document (tags omitted). Residues count along the entry.
UniProt P49771, residues 27-185: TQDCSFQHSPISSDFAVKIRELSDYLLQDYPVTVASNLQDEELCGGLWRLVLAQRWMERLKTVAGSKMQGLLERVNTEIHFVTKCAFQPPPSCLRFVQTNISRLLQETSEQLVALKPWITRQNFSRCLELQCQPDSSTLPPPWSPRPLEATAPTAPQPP

Results are given in words; binding and its absence hold for the method and conditions named. Some results given as binding are weak or reduced against the parent protein; the word gives no strength.

This assay has as its target T1, FLT3-D1-5 (human) (UniProt P36888).
T1 sequence (chain (part 1 of 2)): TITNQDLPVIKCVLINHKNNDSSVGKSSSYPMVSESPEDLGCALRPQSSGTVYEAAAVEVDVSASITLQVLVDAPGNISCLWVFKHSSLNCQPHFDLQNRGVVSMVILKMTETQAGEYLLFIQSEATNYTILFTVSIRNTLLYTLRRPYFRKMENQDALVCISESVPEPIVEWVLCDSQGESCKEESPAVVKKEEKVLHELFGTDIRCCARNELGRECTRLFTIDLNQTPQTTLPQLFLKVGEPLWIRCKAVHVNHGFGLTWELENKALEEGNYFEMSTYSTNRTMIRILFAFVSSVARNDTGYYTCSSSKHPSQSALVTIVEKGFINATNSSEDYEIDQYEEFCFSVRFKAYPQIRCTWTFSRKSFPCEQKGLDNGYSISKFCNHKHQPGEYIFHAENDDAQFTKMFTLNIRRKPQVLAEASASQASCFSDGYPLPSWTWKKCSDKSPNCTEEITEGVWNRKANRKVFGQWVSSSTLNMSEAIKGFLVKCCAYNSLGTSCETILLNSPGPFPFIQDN
T1 sequence (chain (part 2 of 2)): HHHHHH
Put plainly: ligand binding ELISA, FL-coated plates, FLT3 ECD deletion variants. On the technique in general: An ELISA detects its analyte on a solid surface through an enzyme-linked reagent.

As for “FLT3 ligand (from UniProt P49771 27-185)”, the binding entry was “binds”.
